# From PubChem BioAssay AID504834 (National Center for Advancing Translational Sciences (NCATS), 2011)
# Out of some 320,000 compounds screened, about 22,000 (6.9%) were called active. Inconclusive results, whose numbers are uncertain, are shown with a selection of clear calls. Calls come from the whole dose curve; as a rule, active = well fitted inhibition curve with a large enough effect; inconclusive = small, poorly fitted or top-dose-only effect, or another doubt; inactive = no such curve, though single readings can be large or run the other way. Potencies beside an inconclusive call are fits to weak or partial responses and may not hold up.
# Assay: Primary qHTS for delayed death inhibitors of the malarial parasite plastid, 96 hour incubation
# Settings: P. falciparum luciferase reporter growth; series mostly up to 28.7 µM
# In short: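 Readout is luminescence from an integrated firefly luciferase in P. falciparum. Red cells, 2% hematocrit and 0.05% parasitemia final, were cultured with compound through two parasite generations (96 hours) at 37 C, 5% CO2.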
# Potency is the fitted concentration of half-maximal effect.
row,SMILES,Potency
1,CC(=O)c1c[nH]c2ccc(C)cc2c1=O,"inconclusive: 16.5 µM [inhibitor, single point]"
2,COc1ccccc1NC(=O)CSc1nnc(CNC(=O)c2ccco2)o1,"inconclusive: 1.17 µM [inhibitor, full curve]"
3,CN(C)c1ccnc2sc3c(SCc4ccc(Cl)cc4)ncnc3c12,"inconclusive: 4.15 µM [inhibitor, single point]"
4,CCN1/C(=N\N)c2cccc3cccc1c23,"inconclusive: 18.5 µM [inhibitor, single point]"
5,Cc1cc(C)c(C)c(S(=O)(=O)N2CCN(C(=O)c3cc(=O)[nH]c4ccccc34)CC2)c1C,"inconclusive: 0.185 µM [inhibitor, full curve, poor fit]"
6,Cc1ccccc1Nc1nc(N)nc(COC(=O)[C@@H](NC(=O)c2ccccc2Cl)C(C)C)n1,"inconclusive: 13.1 µM [inhibitor, single point]"
7,CCOC(=O)c1ccccc1NC(=O)C1CCCO1 (stereo unspecified),inactive
8,O=c1c(Cc2c(F)cccc2Cl)c(O)ccn1CCc1c[nH]c2ccccc12,active: 5.22 µM
9,O=S(=O)(NCC(c1ccco1)N1CCc2ccccc2C1)c1ccc(Br)cc1 (stereo unspecified),"inconclusive: 8.28 µM [inhibitor, partial curve, poor fit]"
10,CCOC(=O)N1CCN(C(=O)c2ccc(Cl)nc2)CC1,inactive
11,Cc1ccc(Nc2nc(N/N=C\c3ccc4c(c3)OCO4)nc(N3CCOCC3)n2)cc1,"inconclusive: 11.7 µM [inhibitor, single point]"
12,O=C(Nc1cc(Cl)ccc1N1CCOCC1)c1ccc(Br)o1,inactive
13,Oc1ccc(Cl)cc1CNCc1ccc(F)c(F)c1,active: 5.22 µM
14,O=C(CN1CCN(S(=O)(=O)c2ccc(Cl)c(Cl)c2)CC1)N1CCCC1,"inconclusive: 0.131 µM [inhibitor, full curve, poor fit]"
15,NC(=O)c1ncc(C(F)(F)F)cc1Oc1cccc(C(F)(F)F)c1,"inconclusive: 0.0329 µM [inhibitor, full curve, poor fit]"
16,O=C(N/N=C/c1ccco1)c1cc(-c2ccc3ccccc3c2)n[nH]1,inactive
17,CCNC(=S)N1CCC(n2cnc3ccccc32)CC1,inactive
18,COc1ccc(NC(=O)CCCn2c(=O)c3sccc3n(Cc3ccccc3C)c2=O)cc1,inactive
19,Cc1c(C)n(Cc2ccccc2)c2ncnc(NN)c12,inactive
20,O=C(N/N=C/c1cccnc1)c1ccc([N+](=O)[O-])cc1,"inconclusive: 2.33 µM [inhibitor, partial curve, poor fit]"
21,COc1ccc(C2CC(=O)Oc3c(C(CCN4CCN(c5ccccc5)CC4)c4ccc(N(C)C)cc4)c(OC)cc(OC)c32)cc1 (stereo unspecified),active: 10.4 µM

# Another view of some results above:
row	SMILES	Potency
5	Cc1cc(C)c(C)c(S(=O)(=O)N2CCN(C(=O)c3cc(=O)[nH]c4ccccc34)CC2)c1C	inconclusive: 0.185 µM [inhibitor, full curve, poor fit]
6	Cc1ccccc1Nc1nc(N)nc(COC(=O)[C@@H](NC(=O)c2ccccc2Cl)C(C)C)n1	inconclusive: 13.1 µM [inhibitor, single point]
